This note sets out measurements from patent publication US20190270982.

The exact form of at least one protein or probe is not confirmed.

One data set relates to lactoferrin. Briefly: SELEX. The note with it: selected on microarray chip, PBS wash, room temperature; purified native protein; single-stranded DNA.
As for “GGCAGGACACCGTAACCCCACTCGAGGTGCAATTTTGGCGTGAGCTCTTCCTGCC [N33]”, the selection result is reported as “selected”. On to “TGACAGGCAGGACACCGTAACGGTGCGGTCATATCCGGCTTTGCTTTTCCTGCCTTCTCTCCTGCTACCTCCCTCCTCTTCA [N60]”, for which the selection result is “selected”. On to “TGACAGGCAGGACACCGTAACGGGCTTAGCTCTAAATCAAATCCTCCTTATTGATTTTGTCCTGCTACCTCCCTCCTCTTCA [N48]”, for which the selection result was “selected”. As for “GCAGGACACCGTAACAATACTCCTGTTACCGTGCATCTATGGCCATTGGCTTTTCCTGC [N7]”, the selection result is “selected”. On to “AGCAGACGGGAGACCTTTAGAGTTGTAACTTGAGTCTGCT [N15]”, for which the selection result is “selected”.

Turning to “TGACAGGCAGGACACCGTAACAACAACTCGATACTGGTGCCATTTTGGGCGAACGCTTTTCCTGCTACCTCCCTCCTCTTCA [N40]”, the selection result was “selected”. Same read-out and setting: the value for “AGGCAGGACACCGTAACACCGGTGCGTCCCACGGCTCCAGCTCTTCCTGCCT [N12]” was “selected”. With “GCAGGACACCGTAACGGGCTATGCTCTAAATTCTTCCTACTGACGCAATTTTGGACTGC [N21]”, the selection result is on record as “selected”. On to “GGCAGGACACCGTAACCCCTAGTTCCTGGTGCATCTATGGCAAAGCTCTTCCTGCC [N34]”, for which the selection result was “selected”. On the same count and under the same terms, the value for “GCAGGACACCGTAACACGGGCTGATGCTCTCTTTATTTTACCTAAATAAAGTGTCCTGC [N13]” was “selected”; that for “GCAGGACACCGTAACACGGGCTCTGCTTTTCCAATAATGACAAGTATTGGATGGCCTGC [N8]” was “selected”; that for “TGACAGGCAGGACACCGTAACTTCTGATAATCGGTGCATCTATGGCGTAGCTCTTCCTCACCTGCTACCTCCCTCCTCTTCA [N53]” was “selected”. With “TGACAGGCAGGACACCGTAACGGGTAACACTCTACTTATACCTTGCTATAAGTTGTCCGCACTGCTACCTCCCTCCTCTTCA [N49]”, the selection result is “selected”. In the case of “GCAGGACACCGTAACACTCTCAACCATGACGGTGCAATATTGGCGCTAGCTCTTCCTGC [N9]”, the selection result is “selected”. As for “TGACAGGCGGGACACCGTAACCCCAACACGTACGGGGCATTTATGGCATAGCTCTTCCTCCCTGCTACCTCCCTCCTCTTCA [N61]”, the selection result is reported as “selected”.

“TGACAGGCAGGACACCGTAACGGGTTTAACTCTCAAATTAGCTCTGCACTACATTTGTGCCCTGCTACCTCCCTCCTCTTCA [N50]”: the selection result is reported as “selected”. “GGCAGGACACCGTAACCCCTAGTTCCTGGTGCATTTATGGCAAAGCTCTTCCTGCC [N35]”: the selection result is “selected”.

Turning to “TGACAGGCAGGACACCGTAACACACGTTAACTTACGGCGCATTTTTTGGCTTCAGCTCTTCCTGCTACCTCCCTCCTCTTCA [N42]”, the selection result is reported as “selected”. As for “TGACAGGCAGGACACCGTAACGGGCTTATGCTCTTAAAAATCCTGAGCGACTTTTTATGTACTGCTACCTCCCTCCTCTTCA [N59]”, the selection result is reported as “selected”. For the sequence “TGACAGGCAGGACACCGTAACTACCTCTTCCATATCGGTGCAACATTTGGCTTAGCTCTTCCTGCTACCTCCCTCCTCTTCA [N52]”, the selection result is “selected”.

Turning to “TGACAGGCAGGACACCGTAACACGGGGCAATTTTGGTGAAGCTCTTCCTGCCCAGCCTACTCTGCTACCTCCCTCCTCTTCA [N54]”, the selection result is recorded as “selected”. On to “TGACAGGCAGGACACCGTAACCATACTTCGGTGCATCCCATGGCGAATTCGCTCTTCCTTCCTGCTACCTCCCTCCTCTTCA [N45]”, for which the selection result is reported as “selected”.

Regarding “TGACAGGCAGGACACCGTAACGGGCGAATGCTCTCTTTGTTTTATATATAACAAAGTGTCTCTGCTACCTCCCTCCTCTTCA [N57]”, the selection result was “selected”. As to “TGACAGGCAGGACACCGTAACCGGGCTATTGCTCTCAAACTTACACTTTAACGTTTGGGTCCTGCTACCTCCCTCCTCTTCA [N55]”, the selection result is given as “selected”. As to “GCAGGACACCGTAACAACAACTTCGTATCCGGTGCATTTATGGCGAATGCTTTTCCTGC [N26]”, the selection result was “selected”. The same measure, in the same setting: the value for “GCAGGACACCGTAACGGGCAATCTTGCTCTTATTTTCACACTTGATAAATATGTCCTGC [N3]” was “selected”; that for “GCAGGACACCGTAACACTGCTTTATCCCCGTCGGCTTGTCTCTTCGACAGTGTGGCTGC [N29]” was “selected”. With “GCAGGACACCGTAACGGGCGGAGCTCTTCCATTTCAGATTTGTAAATGGATGTCACTGC [N20]”, the selection result is “selected”. On to “AGGCAGGACACCGTAACTGAACGGTCTTGGCTACTGCACATTTTTCCTGCCT [N25]”, for which the selection result is listed as “selected”. Turning to “TGACAGGCAGGACACCGTAACCGGGCGGAGCTCTTATTACATCAACTCGCTGTAATATGGCCTGCTACCTCCCTCCTCTTCA [N46]”, the selection result was “selected”. As for “TGACAGGCAGGACACCGTAACATACGATTCTCTCGCACATTGTGGCTCCGCTTTTATGTTACTGCTACCTCCCTCCTCTTCA [N44]”, the selection result is reported as “selected”. For the sequence “AGGCAGGACACCGTAACCGGTGCATCTATGGCTACTAGCTCTTCCTGCCT [N18]”, the selection result is on record as “selected”. With “CAGGCAGGACACCGTAACCGGGCATTTGCTCTCAATTTAGTCTCAAATTGTGGCCTGCCTG [N17]”, the selection result was “selected”. In the case of “AGGCAGGACACCGTAACCTACAACGGTGCCATCTATGGGCTTTGCTTTTCCTGCCT [N36]”, the selection result was “selected”. Regarding “GCAGGACACCGTAACGGGCGAACGCTCTAAATAAATGGCATCAATTTCTTTTGCCCTGC [N4]”, the selection result is reported as “selected”.

As for “TGACAGGCAGGACACCGTAACGGGCTCTGCTCTAAATTTCGCCCTTGCACGAAATTTTGTCCTGCTACCTCCCCCCTCTTCA [N58]”, the selection result was “selected”. As to “GGCAGGACACCGTAACCATCGACGGTGCCGGTCTCGGGCATTTTGCTCTTCCTGCC [N32]”, the selection result is “selected”. As for “TGACAGGCAGGACACCGTAACGGGCAATCTTGCTCTTATTTTCACACCTGATAAATATGTCCTGCTACCTCCCTCCTCTTCA [N47]”, the selection result is “selected”. As to “AGCAGACGGGAGACTTTTAGAGTTGTAACTTGAGTCTGCT [N30]”, the selection result was “selected”.

Take “TGACAGGCAGGACACCGTAACAACCAACCTACGGTGCAATATTTGGCGGATTAAGCTCTTCCTGCTACCTCCCTCCTCTTCA [N41]”: the selection result was “selected”. Take “CAGGCAGGACACCGTAACGGTGCAATTATTGGTGAACACTCTTCCTTAGCCTGCTACTCTG [N23]”: the selection result is reported as “selected”.

On to “GCAGGACACCGTAACGGGTGCACACTCTTATTTTTACACGAGCCAAAAATATGTCCTGC [N22]”, for which the selection result is reported as “selected”.

Consider “AGGCAGGACACCGTAACGGTGCGTGTACACGGCTCTGCTTTTCCTGCCT [N39]”, for which the selection result is given as “selected”. Turning to “TGACAGGCAGGACACCGTAACACGGTGCAAACTCTTGGCGAATGCTTTTCCTGACCCGCTACTGCTACCTCCCTCCTCTTCA [N43]”, the selection result is reported as “selected”. As to “GCAGGACACCGTAACACTACCTTCTTTCGGTGCGATCCATTCGGCTTTGCTTTTCCTGC [N27]”, the selection result was “selected”. As for “TGACAGGCAGGACACCGTAACGTAACTACGGACGGCATCTATGGCTATGCTCTTGTCCCTGCTGCTACCTCCCTCCTCTTCA [N51]”, the selection result is reported as “selected”. In the case of “TGACAGGCAGGACACCGTAACGCGGGCGAAGCTCTTAATACCTCTCTATTATGTCCTGTTCCTGCTACCTCCCTCCCCTTCA [N56]”, the selection result is given as “selected”.

With “GCAGGACACCGTAACCCTAACACGTACGGGGCATTTATGGCATAGCTCTTCCTCCCTGC [N1]”, the selection result is reported as “selected”. In the case of “GCAGGACACCGTAACACTGCTTTATCCCCGTCGGCTTGGCTCTTCGACAGTGTTGCTGC [N28]”, the selection result is “selected”. In the case of “GCAGGACACCGTAACTCATCCCAAGCTCCGGTGCCATCTATGGGCTTCGCTTTTCCTGC [N24]”, the selection result is given as “selected”.

Regarding “GCAGGACACCGTAACGTTCGTAACAACACGGCATCTATGGCTTTAGCTCTTGTACCTGC [N11]”, the selection result is reported as “selected”. In the case of “GACAGGCAGGACACCGTAACGGTGCATCCATGGCTTTTAGCTCTTCCTGAACTGTC [N37]”, the selection result was “selected”.

In the case of “GCAGGACACCGTAACGGGCGAACGCTCTTTATTTTGGAACCCACAAAATAATGTTCTGC [N19]”, the selection result is “selected”. Take “GCAGGACACCGTAACGTATTAACTAGTACCAGTGCATCTATGGCTATTGCTTTTCCTGC [N10]”: the selection result is reported as “selected”. Same read-out and setting: the value for “GCAGGACACCGTAACGGGCTTATGCTCTTAAAAATCCTGAGCGACTTTTTATGTACTGC [N5]” was “selected”; that for “AGGCAGGACACCGTAACGGTGCATCTATGGCTTTGCTCTTCCTACCTGTTCTACGAGCTGCTACCTCCCT [N38]” was “selected”.

For another data set, the system named is lactoferrin. Briefly: FP. The note with it: 25 ug/mL lactoferrin standard, 37 C 15 min; no value given; purified native protein; label: FITC; single-stranded DNA.
Turning to “AGGCAGGACACCGTAACCGGTGCATCTATGGCTACTAGCTTTTCCTGCCT [N2]”, the binding result is recorded as “binds”.

Staying with this data set, now noted: linear standard curve, diluted milk, 37 C 15 min; purified native protein; label: FITC; single-stranded DNA.
For the sequence “GCAGGACACCGTAACACTGCTTTATCCCCGTCGGCTTGGCTCTTCGACAGTGTGGCTGC [N14]”, the binding result is recorded as “binds”. With “GCAGGACACCGTAACTCGGGCAAAGCTCTGAATAATGTTCAACCAATATTCTGTCCTGC [N6]”, the binding result is recorded as “binds”. The same measure, in the same setting: the value for “GGCAGGACACCGTAACCAGTATAGGTGCATTTTTGGCGCAAGCTCTTCCTGCCCTG [N31]” was “binds”; that for “GGCAGGACACCGTAACCCCTAGTTCCTGGTGCATTTATGGCAAAGCTTTTCCTGCC [N16]” was “binds”.
